{"source": "patent US20240201191A1", "about": "“CITRULLINATED PROTEINS AS BIOMARKERS AND THERAPY TARGETS FOR CANCER” (BOARD OF REGENTS, THE UNIVERSITY OF TEXAS SYSTEM, priority 2022, published 2024)", "note": "Some compounds share one range, which may span the group rather than tell each member.", "data": [{"system": "MDA-MB-468 (TNBC) cells", "experiment": "Cell surface HLA-bound peptidyl-citrullinome by mass spectrometry, MDA-MB-468", "type": "cell-based, human", "details": "mild acid elution, LC-MS/MS, FDR=0.01; class by peptide length", "values": [{"substance": "MEDLDR*NKDQEVNF (MEDLDRNKDQEVNF; M1 oxidized; citrulline at R6; MOD_RES (1)..(1) Oxidized Methionine; MOD_RES (6)..(6) Citrullinated Arginine) [SEQ ID NO: 113, S100A6 peptide, M1(Oxi.); R6(Cit.)]", "Cell surface MHC binding citrullinated peptide identified in MDA-MB-468 (TNBC)": "MHC-II (from 12 to 34 as MHC-IU binding peptides)"}, {"substance": "EAVSHTSDMHR*GYADSPSKAGAAPYVQAF (EAVSHTSDMHRGYADSPSKAGAAPYVQAF; citrulline at R11; MOD_RES (11)..(11) Citrullinated Arginine) [SEQ ID NO: 20, CAP1 peptide, R11(Cit.)]", "Cell surface MHC binding citrullinated peptide identified in MDA-MB-468 (TNBC)": "MHC-II (from 12 to 34 as MHC-IU binding peptides)"}, {"substance": "YVSNEELR*GSTPEAAAQVVQWVS (YVSNEELRGSTPEAAAQVVQWVS; citrulline at R8; MOD_RES (8)..(8) Citrullinated Arginine) [SEQ ID NO: 40, EEF1G peptide, R8(Cit.)]", "Cell surface MHC binding citrullinated peptide identified in MDA-MB-468 (TNBC)": "MHC-II (from 12 to 34 as MHC-IU binding peptides)"}, {"substance": "YR*QQAAYYAQTSPQGMPQHPPAPQGQ (YRQQAAYYAQTSPQGMPQHPPAPQGQ; citrulline at R2; MOD_RES (2)..(2) Citrullinated Arginine) [SEQ ID NO: 46, FUBP1 peptide, R2(Cit.)]", "Cell surface MHC binding citrullinated peptide identified in MDA-MB-468 (TNBC)": "MHC-II (from 12 to 34 as MHC-IU binding peptides)"}, {"substance": "VNTNVPR*ASVPDGELSEL [SEQ ID NO: 66]", "Cell surface MHC binding citrullinated peptide identified in MDA-MB-468 (TNBC)": "MHC-II (from 12 to 34 as MHC-IU binding peptides)"}, {"substance": "INANR*ADAEEEAATRIPA (INANRADAEEEAATRIPA; citrulline at R5; MOD_RES (5)..(5) Citrullinated Arginine) [SEQ ID NO: 32, DYNC112 peptide, R5(Cit.)]", "Cell surface MHC binding citrullinated peptide identified in MDA-MB-468 (TNBC)": "MHC-II (from 12 to 34 as MHC-IU binding peptides)"}, {"substance": "LAENGR*LSNTQGVVSAFSTM (LAENGRLSNTQGVVSAFSTM; citrulline at R6; MOD_RES (6)..(6) Citrullinated Arginine) [SEQ ID NO: 8, ATP5O peptide, R6(Cit.)]", "Cell surface MHC binding citrullinated peptide identified in MDA-MB-468 (TNBC)": "MHC-II (from 12 to 34 as MHC-IU binding peptides)"}, {"substance": "YQVKPYHGGGAPLR*VELPT (YQVKPYHGGGAPLRVELPT; citrulline at R14; MOD_RES (14)..(14) Citrullinated Arginine) [SEQ ID NO: 1, AIMP2 peptide, R14(Cit.)]", "Cell surface MHC binding citrullinated peptide identified in MDA-MB-468 (TNBC)": "MHC-II (from 12 to 34 as MHC-IU binding peptides)"}, {"substance": "LLVTGAVDCSLRGWDLR*N (LLVTGAVDCSLRGWDLRN; citrulline at R17; MOD_RES (17)..(17) Citrullinated Arginine) [SEQ ID NO: 79, PEX7 peptide, R17(Cit.)]", "Cell surface MHC binding citrullinated peptide identified in MDA-MB-468 (TNBC)": "MHC-II (from 12 to 34 as MHC-IU binding peptides)"}, {"substance": "IREADVDQDGR*VNYE (IREADVDQDGRVNYE; citrulline at R11; MOD_RES (11)..(11) Citrullinated Arginine) [SEQ ID NO: 19, CALML5 peptide, R1I(Cit.)]", "Cell surface MHC binding citrullinated peptide identified in MDA-MB-468 (TNBC)": "MHC-II (from 12 to 34 as MHC-IU binding peptides)"}, {"substance": "NVVKTGR*VMLGETNPAD (NVVKTGRVMLGETNPAD; citrulline at R7; MOD_RES (7)..(7) Citrullinated Arginine) [SEQ ID NO: 72, NME2 peptide, R7(Cit.)]", "Cell surface MHC binding citrullinated peptide identified in MDA-MB-468 (TNBC)": "MHC-II (from 12 to 34 as MHC-IU binding peptides)"}, {"substance": "KSVTEQGAELSNEER*NLL (KSVTEQGAELSNEERNLL; citrulline at R15; MOD_RES (15)..(15) Citrullinated Arginine) [SEQ ID NO: 134, YWHAZ peptide, R15(Cit.)]", "Cell surface MHC binding citrullinated peptide identified in MDA-MB-468 (TNBC)": "MHC-II (from 12 to 34 as MHC-IU binding peptides)"}, {"substance": "WQGLIVPDNPPYDKGAFR* (citrulline at R18; MOD_RES (18)..(18) Citrullinated Arginine) [SEQ ID NO: 133, UBE2L3 peptide, R18(Cit.)]", "Cell surface MHC binding citrullinated peptide identified in MDA-MB-468 (TNBC)": "MHC-II (from 12 to 34 as MHC-IU binding peptides)"}, {"substance": "LETADGESMNTEESNQGSTPSDQQQNKLR*SS (LETADGESMNTEESNQGSTPSDQQQNKLRSS; citrulline at R29; MOD_RES (29)..(29) Citrullinated Arginine) [SEQ ID NO: 100, PPPIR2P3 peptide, R29(Cit.)]", "Cell surface MHC binding citrullinated peptide identified in MDA-MB-468 (TNBC)": "MHC-II (from 12 to 34 as MHC-IU binding peptides)"}, {"substance": "WKVTR*KDGNASGTTLL (WKVTRKDGNASGTTLL; citrulline at R5; MOD_RES (5)..(5) Citrullinated Arginine) [SEQ ID NO: 34, EEF1A1 peptide, R5(Cit.)]", "Cell surface MHC binding citrullinated peptide identified in MDA-MB-468 (TNBC)": "MHC-II (from 12 to 34 as MHC-IU binding peptides)"}, {"substance": "SIQGQHTISPLDLAKLNQVAR*QQSHF (SIQGQHTISPLDLAKLNQVARQQSHF; citrulline at R21; MOD_RES (21)..(21) Citrullinated Arginine) [SEQ ID NO: 77, PCBP1 peptide, R21(Cit.)]", "Cell surface MHC binding citrullinated peptide identified in MDA-MB-468 (TNBC)": "MHC-II (from 12 to 34 as MHC-IU binding peptides)"}, {"substance": "LR*IRSKKNEIMVAPDKDYFL (LRIRSKKNEIMVAPDKDYFL; citrulline at R2; MOD_RES (2)..(2) Citrullinated Arginine) [SEQ ID NO: 33, DYNLRB1 peptide, R2(Cit.)]", "Cell surface MHC binding citrullinated peptide identified in MDA-MB-468 (TNBC)": "MHC-II (from 12 to 34 as MHC-IU binding peptides)"}, {"substance": "LIR*KHTGSGILSMANAGPNINGSQF [SEQ ID NO: 94]", "Cell surface MHC binding citrullinated peptide identified in MDA-MB-468 (TNBC)": "MHC-II (from 12 to 34 as MHC-IU binding peptides)"}, {"substance": "QFGEEDADPGAMSR*PFGVAL (QFGEEDADPGAMSRPFGVAL; citrulline at R14; MOD_RES (14)..(14) Citrullinated Arginine) [SEQ ID NO: 106, PSMA5 peptide, R14(Cit.)]", "Cell surface MHC binding citrullinated peptide identified in MDA-MB-468 (TNBC)": "MHC-II (from 12 to 34 as MHC-IU binding peptides)"}, {"substance": "PGHLQEGFGCVVTNR*FDQL (PGHLQEGFGCVVTNRFDQL; citrulline at R15; MOD_RES (15)..(15) Citrullinated Arginine) [SEQ ID NO: 118, SERBP1 peptide, R15(Cit.)]", "Cell surface MHC binding citrullinated peptide identified in MDA-MB-468 (TNBC)": "MHC-II (from 12 to 34 as MHC-IU binding peptides)"}, {"substance": "QWIPPPDKR*RNSELFQ (QWIPPPDKRRNSELFQ; citrulline at R9; MOD_RES (9)..(9) Citrullinated Arginine) [SEQ ID NO: 62, KCTD8 peptide, R9(Cit.)]", "Cell surface MHC binding citrullinated peptide identified in MDA-MB-468 (TNBC)": "MHC-II (from 12 to 34 as MHC-IU binding peptides)"}, {"substance": "QVVGR*AGTGVDNVDL (QVVGRAGTGVDNVDL; citrulline at R5; MOD_RES (5)..(5) Citrullinated Arginine) [SEQ ID NO: 85, PHGDH peptide, R5(Cit.)]", "Cell surface MHC binding citrullinated peptide identified in MDA-MB-468 (TNBC)": "MHC-II (from 12 to 34 as MHC-IU binding peptides)"}, {"substance": "SR*AQLGGPEAAKSDETAAK (SRAQLGGPEAAKSDETAAK; citrulline at R2; MOD_RES (2)..(2) Citrullinated Arginine) [SEQ ID NO: 59, HSPB1 peptide, R2(Cit.)]", "Cell surface MHC binding citrullinated peptide identified in MDA-MB-468 (TNBC)": "MHC-II (from 12 to 34 as MHC-IU binding peptides)"}, {"substance": "WKVTR*KDGNASGTTL (WKVTRKDGNASGTTL; citrulline at R5; MOD_RES (5)..(5) Citrullinated Arginine) [SEQ ID NO: 35, EEF1A1 peptide, R5(Cit.)]", "Cell surface MHC binding citrullinated peptide identified in MDA-MB-468 (TNBC)": "MHC-II (from 12 to 34 as MHC-IU binding peptides)"}, {"substance": "QLQEGKNVIGLQMGTNR*GASQAGMTGYGMPRQIL (QLQEGKNVIGLQMGTNRGASQAGMTGYGMPRQIL; citrulline at R17; MOD_RES (17)..(17) Citrullinated Arginine) [SEQ ID NO: 127, TAGLN2 peptide, R17(Cit.)]", "Cell surface MHC binding citrullinated peptide identified in MDA-MB-468 (TNBC)": "MHC-II (from 12 to 34 as MHC-IU binding peptides)"}, {"substance": "TNRGASQAGMTGYGMPR*QIL (TNRGASQAGMTGYGMPRQIL; citrulline at R17; MOD_RES (17)..(17) Citrullinated Arginine) [SEQ ID NO: 126, TAGLN2 peptide, R17(Cit.)]", "Cell surface MHC binding citrullinated peptide identified in MDA-MB-468 (TNBC)": "MHC-II (from 12 to 34 as MHC-IU binding peptides)"}, {"substance": "ELEAER*STNIAAAASEPHS (ELEAERSTNIAAAASEPHS; citrulline at R6; MOD_RES (6)..(6) Citrullinated Arginine) [SEQ ID NO: 53, HDDC2 peptide, R6(Cit.)]", "Cell surface MHC binding citrullinated peptide identified in MDA-MB-468 (TNBC)": "MHC-II (from 12 to 34 as MHC-IU binding peptides)"}, {"substance": "LR*ATDGKKKISTVVSSKEVNKFQMA (LRATDGKKKISTVVSSKEVNKFQMA; citrulline at R2; MOD_RES (2)..(2) Citrullinated Arginine) [SEQ ID NO: 122, SRP14 peptide, R2(Cit.)]", "Cell surface MHC binding citrullinated peptide identified in MDA-MB-468 (TNBC)": "MHC-II (from 12 to 34 as MHC-IU binding peptides)"}, {"substance": "LR*AQEAPGQAEPPAAAEVQGAGN (LRAQEAPGQAEPPAAAEVQGAGN; citrulline at R2; MOD_RES (2)..(2) Citrullinated Arginine) [SEQ ID NO: 120, SLC9A3R1 peptide, R2(Cit.)]", "Cell surface MHC binding citrullinated peptide identified in MDA-MB-468 (TNBC)": "MHC-II (from 12 to 34 as MHC-IU binding peptides)"}, {"substance": "MAR*LTWASHEKMHEGDEGPGHHHKPGLGEGTP (MARLTWASHEKMHEGDEGPGHHHKPGLGEGTP; citrulline at R3; MOD_RES (3)..(3) Citrullinated Arginine) [SEQ ID NO: 115, S100A9 peptide, R3(Cit.)]", "Cell surface MHC binding citrullinated peptide identified in MDA-MB-468 (TNBC)": "MHC-II (from 12 to 34 as MHC-IU binding peptides)"}, {"substance": "WYDNEFGYSNR*VVD (WYDNEFGYSNRVVD; citrulline at R11; MOD_RES (11)..(11) Citrullinated Arginine) [SEQ ID NO: 50, GAPDH peptide, RII(Cit.)]", "Cell surface MHC binding citrullinated peptide identified in MDA-MB-468 (TNBC)": "MHC-II (from 12 to 34 as MHC-IU binding peptides)"}]}]}
